Assay results published in patent US12728116B2, “Methods of treating multiple sclerosis” (Vanda Pharmaceuticals Inc., priority 2021, dated 2026).

Test system: adult subjects with relapsing MS
Assay: Premature treatment discontinuation
Format: in vivo
Protocol: A total of 1468 subjects were screened. Of those, 1133 subjects were randomized (567 to ponesimod 20 mg and 566 to teriflunomide 14 mg) across 162 sites in 28 countries, and 1131 subjects received at least one dose of study drug. The disposition of subjects is summarized in Table 1 and a summary of reasons (primary reason) for treatment discontinuation are shown in Table 2. Overall treatment and study discontinuation were balanced across both treatment arms. A total of 6.5% and 2.5% of the subjects discontinued due to AEs or tolerability related reasons in ponesimod 20 mg and teriflunomide 14 mg, respectively, while 1.9% and 4.3% discontinued due to efficacy related reasons. There were 2 deaths reported during the study—both on teriflunomide 14 mg.

Structure (SMILES): CCC/N=C1\S/C(=C\c2ccc(OC[C@H](O)CO)c(Cl)c2)C(=O)N1c1ccccc1C [Ponesimod, (R)-5-[3-chloro-4-(2,3-dihydroxy-propoxy)-benz[Z]ylidene]-2-([Z]-propylimino)-3-o-tolyl-thiazolidin-4-one]
- Premature discontinuation: Physician decision, Lack of efficacy/treatment failure, % (Safety Set): (0.7) %
- Premature discontinuation: Subject decision, Efficacy related, % (Safety Set): (1.2) %
- Subjects who prematurely discontinued study treatment, % (Safety Set): (16.6) %
- Subjects discontinued due to efficacy related reasons (ponesimod 20 mg, teriflunomide 14 mg): 1.9%
